Assay results published in US20100087499A1, “PHARMACEUTICAL COMPOSITIONS AND METHODS OF USING TEMOZOLOMIDE AND MULTI-TARGETED KINASE INHIBITORS” (SCHERING CORPORATION, priority 2007, published 2010).
For part of these data: At least one structure is not confirmed: it was looked up by name or label, or the drawing left a doubt. Some of these results come from one statement about several compounds together.

Legend:
[1] = system: U87MG glioblastoma xenograft; assay: U87MG glioblastoma xenograft tumor growth in nude mice; assay type: in vivo
Method: The following human glioblastoma xenograft model may be employed to ascertain the efficacy of the formulations and methods described herein. Human glioblastoma cell U87MG are inoculated subcutaneously into female nude mice (age 4-6 wks). Xenograft tumor growth is followed by measuring the tumor size using a caliper. Once tumor size reaches about 100 mm^3 (average), mice carrying the xenograft tumors are grouped and treated with different doses of the combination of TMZ and a multi-targeted kinase inhibitor. Likewise, human glioblastoma cell U373 may be used to establish a xenograft model.
The combination of TMZ and a multi-targeted kinase inhibitor (e.g., sunitinib) for treating a cell proliferative disorder was examined using a human glioblastoma xenograft model. In particular, the glioblastoma model U87MG was used to evaluate the efficacy of multi-targeted kinase inhibitor sunitinib as a single agent compared to TMZ (Temozolomide, Temodar®), a chemotherapeutic drug clinically approved for treating brain tumor, as a single agent. […]
In brief, nude mice were inoculated with U87-MG glioblastoma cells and the resultant tumors treated with control, or various concentrations of TMZ, sunitinib, or a combination of both TMZ and sunitinib. […] Tumor size and body weight was measured two to three times per week. […]

[2] = Body weight (tolerability) of nude mice carrying U87MG xenografts; assay type: in vivo
[3] = dosage regimens of Table 1 (study to Day 17)
[4] = dosage regimens of Table 2 (study to Day 20)

SMILES	comparative efficacy at inhibiting xenograft growth (mean tumor growth curves) ([1]; FIG. 1, dosing regimens of Table 1)	comparative efficacy at inhibiting xenograft growth (mean tumor growth curves) ([1]; FIG. 3, dosing regimens of Table 2)	body weight loss [2, 3]	body weight loss [2, 4]
Cn1nnc2c(C(N)=O)ncn2c1=O [TMZ, 3,4-dihydro-3-methyl-4-oxoimidazo[5,1-d]-as-tetazine-8-carboxamide]	more effective than Sunitinib	more effective than Sunitinib	no more than 5%	no more than 5%
CCN(CC)CCNC(=O)c1c(C)[nH]c(/C=C2\C(=O)Nc3ccc(F)cc32)c1C [sunitinib]			no more than 5%	no more than 5%
